Construct, isoform or probe ends are uncertain for at least one entry. The direction of at least one scale is not stated here.
Assays:
Hfq66 = Hfq66 (UniProt P0A6X3); assay: BLI; details: 1 uM RydC; BLI: 25 mM Tris pH 7.5, 50 mM NaCl, 50 mM KCl, 1 mM MgCl2, 1 mM DTT, 0-500 nM Hfq, temperature not stated; recombinant protein; residues 1-66; label: 5' biotin (GMP-biotin); probe letters rebuilt from the primers and the genome; scale: fold lower affinity than without RydC
[1] = molecular target: Hfq wild-type (Escherichia coli) (UniProt P0A6X3); assay: BLI; details: 1 uM RydC; BLI: 25 mM Tris pH 7.5, 50 mM NaCl, 50 mM KCl, 1 mM MgCl2, 1 mM DTT, 0-500 nM Hfq, temperature not stated; recombinant protein; residues 1-102; label: 5' biotin (GMP-biotin); probe letters rebuilt from the primers and the genome

Sequences of proteins named here, by UniProt entry; tags and fusion partners are left off. Residues count along the entry.
UniProt P0A6X3, 1-66: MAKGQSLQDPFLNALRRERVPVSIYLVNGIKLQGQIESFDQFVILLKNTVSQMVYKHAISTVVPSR

GGUUGUUUAUAUUACGAUAAUUAUUAGGCAUUAACGGGAACCGGAGCGUUCCCGAUUCACCAUGGAUGGCCUUUUCGGCAAGGGCUCCUCCCUUCCUCUGUUCUACGUCGGAUAACUGGCUCACGGAAUUGUCCGUGGG [cfa1]
binding signal (Hfq66): 100
binding signal (fold lower affinity than without RydC) [1]: 5

Reference: article PMC4337610
